Reference: PMC3739785
These are yes or no findings as the source states them, for the method shown. Some results given as binding are weak or reduced against the parent protein; the word gives no strength.

What was measured:
[1] = target: human Hsp90α (human) (UniProt P07900); experiment: SEC; chaperone and cochaperone at 2.5 µM, 10 min at 30°C following 10 min on ice, 40 mM Hepes-KOH pH 7.4, 50 mM KCl, 2 mM Mg2Cl; Superdex 200 HR 10/30 in the same buffer; fractions analysed by SDS-PAGE (Western blot for Aha1 and Cdc37 in the Hsp103 runs); shift of the cochaperone to higher molecular mass; both purified
[2] = target: human Hsp103 (human) (UniProt P07900); experiment: as above

binding [1]: binds weakly
binding [2]: binds weakly
Substance: human Aha1 (activator of Hsp90 ATPase) (from UniProt O95433 1-338)
